Results from the supplement of paper PMC11732987, “Enantioselective OTUD7B fragment discovery through chemoproteomics screening and high-throughput optimisation” (Communications Chemistry, 2025).
Some of the results follow. The data scatter; read single values as rough.

Chains of the proteins cited; added tags and fusions are not shown. Lines headed by an entry give the natural chain unless they say otherwise; changes in a name come on top. Residues count along the entry.
UniProt Q8IWI9, 36-59: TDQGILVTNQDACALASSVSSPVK
UniProt P46013, 1959-1982: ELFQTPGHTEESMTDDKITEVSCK
UniProt Q86W50: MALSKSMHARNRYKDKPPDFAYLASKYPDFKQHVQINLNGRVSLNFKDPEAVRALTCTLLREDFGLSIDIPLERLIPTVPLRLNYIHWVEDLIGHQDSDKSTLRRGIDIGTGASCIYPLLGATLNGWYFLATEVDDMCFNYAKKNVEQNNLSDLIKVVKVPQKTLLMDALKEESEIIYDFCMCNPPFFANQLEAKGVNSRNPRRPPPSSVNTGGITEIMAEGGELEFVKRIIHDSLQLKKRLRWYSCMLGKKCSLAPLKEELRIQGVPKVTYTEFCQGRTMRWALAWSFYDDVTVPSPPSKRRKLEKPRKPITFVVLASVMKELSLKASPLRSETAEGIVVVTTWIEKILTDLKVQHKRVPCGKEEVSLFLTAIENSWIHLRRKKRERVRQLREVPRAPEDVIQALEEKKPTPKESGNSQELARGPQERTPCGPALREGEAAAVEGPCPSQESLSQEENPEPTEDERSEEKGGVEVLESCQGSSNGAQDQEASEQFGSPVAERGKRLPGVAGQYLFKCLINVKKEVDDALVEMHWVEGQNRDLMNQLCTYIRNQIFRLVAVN
UniProt Q9BQP7, 64-84: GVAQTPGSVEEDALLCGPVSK
UniProt Q9NU22: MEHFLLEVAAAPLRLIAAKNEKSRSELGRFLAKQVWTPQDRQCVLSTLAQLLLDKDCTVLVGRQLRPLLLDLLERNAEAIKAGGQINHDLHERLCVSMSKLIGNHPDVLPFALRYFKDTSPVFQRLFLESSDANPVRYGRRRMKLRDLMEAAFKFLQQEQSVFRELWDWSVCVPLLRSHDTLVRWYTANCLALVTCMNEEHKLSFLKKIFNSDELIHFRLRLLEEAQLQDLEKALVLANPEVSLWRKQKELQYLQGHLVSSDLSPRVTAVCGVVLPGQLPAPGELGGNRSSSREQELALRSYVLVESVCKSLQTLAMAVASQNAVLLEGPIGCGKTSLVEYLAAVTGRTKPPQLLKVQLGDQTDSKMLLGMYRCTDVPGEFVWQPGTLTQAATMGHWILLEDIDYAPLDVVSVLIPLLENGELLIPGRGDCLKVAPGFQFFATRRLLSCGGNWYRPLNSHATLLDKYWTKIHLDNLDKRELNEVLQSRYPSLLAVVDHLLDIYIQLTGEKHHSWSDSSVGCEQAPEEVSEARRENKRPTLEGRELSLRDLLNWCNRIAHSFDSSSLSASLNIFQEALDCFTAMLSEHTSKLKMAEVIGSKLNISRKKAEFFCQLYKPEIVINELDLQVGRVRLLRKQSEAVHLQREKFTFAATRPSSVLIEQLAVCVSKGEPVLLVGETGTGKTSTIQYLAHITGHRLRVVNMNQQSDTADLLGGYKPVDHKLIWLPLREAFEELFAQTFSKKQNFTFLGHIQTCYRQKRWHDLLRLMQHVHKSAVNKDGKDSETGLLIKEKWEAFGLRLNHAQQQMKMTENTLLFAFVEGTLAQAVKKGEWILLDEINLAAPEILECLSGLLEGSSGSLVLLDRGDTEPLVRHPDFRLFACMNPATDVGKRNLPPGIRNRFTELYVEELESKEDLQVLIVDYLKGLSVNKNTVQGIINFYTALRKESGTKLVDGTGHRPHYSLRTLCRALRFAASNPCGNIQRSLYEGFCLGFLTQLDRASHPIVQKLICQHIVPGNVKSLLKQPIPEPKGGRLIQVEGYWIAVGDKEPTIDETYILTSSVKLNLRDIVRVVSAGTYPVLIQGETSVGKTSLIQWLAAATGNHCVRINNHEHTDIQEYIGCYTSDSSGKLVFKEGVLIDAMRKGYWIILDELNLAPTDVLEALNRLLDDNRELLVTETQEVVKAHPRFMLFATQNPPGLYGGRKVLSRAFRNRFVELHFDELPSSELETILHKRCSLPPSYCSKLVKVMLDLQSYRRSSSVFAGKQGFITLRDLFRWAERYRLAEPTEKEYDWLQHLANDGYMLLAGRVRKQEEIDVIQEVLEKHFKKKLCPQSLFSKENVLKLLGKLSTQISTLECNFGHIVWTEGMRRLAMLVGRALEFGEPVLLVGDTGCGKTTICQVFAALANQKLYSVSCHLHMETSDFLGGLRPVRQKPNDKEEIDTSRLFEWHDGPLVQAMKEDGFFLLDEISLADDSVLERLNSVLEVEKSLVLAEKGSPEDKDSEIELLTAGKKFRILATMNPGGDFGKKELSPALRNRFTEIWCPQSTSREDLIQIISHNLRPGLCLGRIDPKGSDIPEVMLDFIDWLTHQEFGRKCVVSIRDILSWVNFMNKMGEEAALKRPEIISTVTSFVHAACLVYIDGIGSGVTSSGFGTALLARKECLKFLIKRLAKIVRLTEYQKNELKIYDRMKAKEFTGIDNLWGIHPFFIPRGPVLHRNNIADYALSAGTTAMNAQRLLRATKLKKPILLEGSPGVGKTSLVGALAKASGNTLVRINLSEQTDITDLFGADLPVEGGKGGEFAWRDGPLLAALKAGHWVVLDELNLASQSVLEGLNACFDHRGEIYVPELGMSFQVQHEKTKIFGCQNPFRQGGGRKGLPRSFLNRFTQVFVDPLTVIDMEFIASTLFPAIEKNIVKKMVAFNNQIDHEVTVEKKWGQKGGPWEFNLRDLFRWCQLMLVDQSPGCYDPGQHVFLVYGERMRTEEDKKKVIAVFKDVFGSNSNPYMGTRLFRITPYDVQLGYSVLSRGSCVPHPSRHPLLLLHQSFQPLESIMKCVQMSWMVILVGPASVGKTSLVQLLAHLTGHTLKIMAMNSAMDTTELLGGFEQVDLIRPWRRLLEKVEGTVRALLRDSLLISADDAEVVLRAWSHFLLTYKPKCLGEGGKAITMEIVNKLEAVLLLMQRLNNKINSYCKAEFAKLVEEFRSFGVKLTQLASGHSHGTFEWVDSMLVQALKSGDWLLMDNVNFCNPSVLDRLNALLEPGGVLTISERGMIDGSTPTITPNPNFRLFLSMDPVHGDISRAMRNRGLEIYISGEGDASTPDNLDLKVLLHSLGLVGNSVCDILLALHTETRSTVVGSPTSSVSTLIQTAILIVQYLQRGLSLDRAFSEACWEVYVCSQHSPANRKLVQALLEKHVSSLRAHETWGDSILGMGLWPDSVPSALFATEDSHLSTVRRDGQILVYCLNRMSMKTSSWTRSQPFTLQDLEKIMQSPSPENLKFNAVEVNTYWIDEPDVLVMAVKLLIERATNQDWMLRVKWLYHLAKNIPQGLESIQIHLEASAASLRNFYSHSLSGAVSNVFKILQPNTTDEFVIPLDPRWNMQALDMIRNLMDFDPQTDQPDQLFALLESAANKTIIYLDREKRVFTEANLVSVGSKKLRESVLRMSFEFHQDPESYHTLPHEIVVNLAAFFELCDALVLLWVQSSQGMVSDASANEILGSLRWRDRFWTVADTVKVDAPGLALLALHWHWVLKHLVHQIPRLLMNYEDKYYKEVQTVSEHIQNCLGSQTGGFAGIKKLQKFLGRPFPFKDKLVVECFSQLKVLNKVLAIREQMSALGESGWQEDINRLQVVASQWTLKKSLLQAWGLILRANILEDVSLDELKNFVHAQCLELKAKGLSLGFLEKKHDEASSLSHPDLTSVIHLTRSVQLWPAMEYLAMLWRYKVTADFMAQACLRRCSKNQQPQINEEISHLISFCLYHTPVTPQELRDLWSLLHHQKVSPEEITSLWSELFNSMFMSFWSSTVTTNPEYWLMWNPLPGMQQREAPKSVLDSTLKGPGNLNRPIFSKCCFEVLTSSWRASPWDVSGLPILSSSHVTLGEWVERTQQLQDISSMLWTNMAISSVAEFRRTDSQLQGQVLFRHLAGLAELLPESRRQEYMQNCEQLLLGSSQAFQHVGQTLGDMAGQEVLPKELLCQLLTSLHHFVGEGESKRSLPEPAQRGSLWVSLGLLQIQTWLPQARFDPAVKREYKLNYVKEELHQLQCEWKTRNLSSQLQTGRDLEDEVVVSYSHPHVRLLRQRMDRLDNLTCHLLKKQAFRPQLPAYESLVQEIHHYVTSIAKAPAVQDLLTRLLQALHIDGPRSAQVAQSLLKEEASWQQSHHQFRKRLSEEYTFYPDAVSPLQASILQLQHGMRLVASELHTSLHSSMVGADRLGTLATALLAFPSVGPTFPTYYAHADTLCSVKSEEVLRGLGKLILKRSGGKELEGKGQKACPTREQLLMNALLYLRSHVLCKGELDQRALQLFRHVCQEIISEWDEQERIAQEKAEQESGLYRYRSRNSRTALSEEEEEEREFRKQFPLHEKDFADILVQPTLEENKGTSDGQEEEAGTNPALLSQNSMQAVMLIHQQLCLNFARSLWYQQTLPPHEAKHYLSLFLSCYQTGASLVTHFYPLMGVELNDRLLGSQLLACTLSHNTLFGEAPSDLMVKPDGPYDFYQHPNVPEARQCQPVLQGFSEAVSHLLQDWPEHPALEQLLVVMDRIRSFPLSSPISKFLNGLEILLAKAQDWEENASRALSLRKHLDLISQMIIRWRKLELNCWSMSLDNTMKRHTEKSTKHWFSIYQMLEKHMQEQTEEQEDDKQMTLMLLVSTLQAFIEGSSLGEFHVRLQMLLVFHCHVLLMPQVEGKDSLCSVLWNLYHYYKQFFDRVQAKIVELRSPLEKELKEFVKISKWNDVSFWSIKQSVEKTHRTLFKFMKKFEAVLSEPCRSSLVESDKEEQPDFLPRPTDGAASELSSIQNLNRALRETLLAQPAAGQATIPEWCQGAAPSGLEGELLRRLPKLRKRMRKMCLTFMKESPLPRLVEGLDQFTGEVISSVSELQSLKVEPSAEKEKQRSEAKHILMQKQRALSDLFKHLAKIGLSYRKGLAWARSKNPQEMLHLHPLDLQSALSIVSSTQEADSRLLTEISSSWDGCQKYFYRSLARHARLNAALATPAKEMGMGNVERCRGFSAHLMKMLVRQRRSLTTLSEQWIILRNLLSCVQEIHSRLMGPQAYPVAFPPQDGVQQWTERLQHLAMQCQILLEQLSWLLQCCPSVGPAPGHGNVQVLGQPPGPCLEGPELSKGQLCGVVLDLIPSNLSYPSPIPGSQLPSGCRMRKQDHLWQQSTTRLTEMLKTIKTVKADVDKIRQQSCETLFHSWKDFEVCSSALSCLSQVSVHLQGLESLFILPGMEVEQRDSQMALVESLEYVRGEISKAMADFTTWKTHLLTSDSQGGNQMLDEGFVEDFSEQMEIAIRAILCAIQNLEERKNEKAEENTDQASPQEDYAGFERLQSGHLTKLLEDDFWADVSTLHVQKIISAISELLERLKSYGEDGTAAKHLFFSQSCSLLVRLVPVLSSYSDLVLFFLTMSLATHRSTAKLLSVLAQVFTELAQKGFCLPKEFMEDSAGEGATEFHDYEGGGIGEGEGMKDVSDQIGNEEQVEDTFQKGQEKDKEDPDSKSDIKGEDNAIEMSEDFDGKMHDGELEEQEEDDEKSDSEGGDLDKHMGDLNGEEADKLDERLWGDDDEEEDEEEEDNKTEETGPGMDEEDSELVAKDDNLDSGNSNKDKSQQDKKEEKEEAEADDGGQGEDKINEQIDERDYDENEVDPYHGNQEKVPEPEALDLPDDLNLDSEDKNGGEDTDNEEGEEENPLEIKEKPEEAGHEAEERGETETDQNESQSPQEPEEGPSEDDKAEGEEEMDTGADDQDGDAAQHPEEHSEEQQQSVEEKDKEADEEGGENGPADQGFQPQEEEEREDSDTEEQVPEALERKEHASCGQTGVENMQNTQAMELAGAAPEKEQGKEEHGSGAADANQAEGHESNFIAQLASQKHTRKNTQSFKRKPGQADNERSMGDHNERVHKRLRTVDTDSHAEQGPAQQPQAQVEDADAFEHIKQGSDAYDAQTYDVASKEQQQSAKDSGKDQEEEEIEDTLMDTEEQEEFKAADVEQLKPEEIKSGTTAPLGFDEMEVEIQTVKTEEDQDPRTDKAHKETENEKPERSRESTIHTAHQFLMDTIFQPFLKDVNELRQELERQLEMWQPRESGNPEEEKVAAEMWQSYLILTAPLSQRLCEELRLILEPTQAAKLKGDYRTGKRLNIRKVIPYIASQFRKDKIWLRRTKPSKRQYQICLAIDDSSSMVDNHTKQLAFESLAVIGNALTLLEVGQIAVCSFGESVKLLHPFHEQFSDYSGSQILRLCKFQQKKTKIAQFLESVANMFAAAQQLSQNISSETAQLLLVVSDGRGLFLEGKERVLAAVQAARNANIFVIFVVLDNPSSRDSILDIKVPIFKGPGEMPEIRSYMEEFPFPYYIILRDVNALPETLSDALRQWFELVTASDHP
UniProt Q6NTE8: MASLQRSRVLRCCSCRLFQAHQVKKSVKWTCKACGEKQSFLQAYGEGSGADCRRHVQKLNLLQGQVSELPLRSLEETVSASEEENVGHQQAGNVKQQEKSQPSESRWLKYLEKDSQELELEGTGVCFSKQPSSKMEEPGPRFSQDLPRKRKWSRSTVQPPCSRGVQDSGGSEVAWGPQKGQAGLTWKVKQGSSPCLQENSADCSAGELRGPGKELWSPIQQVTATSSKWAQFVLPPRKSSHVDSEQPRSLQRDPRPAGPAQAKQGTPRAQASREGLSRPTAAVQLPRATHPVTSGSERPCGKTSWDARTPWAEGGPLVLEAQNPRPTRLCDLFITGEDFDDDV
UniProt Q86XN8, 176-197: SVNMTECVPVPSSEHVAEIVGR

Columns and labels:
[1] = compound: ClCC(=O)N[C@@H]1CCCc2ccccc12; test: log2 mean competition ratio of IA-DTB cysteine labelling (DMSO/compound) (log2 ratio); higher = stronger cysteine engagement by compound; details: treatment time: 4 h, cell line lysate: HEK293T
Description: (§1)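 IA-DTB competitive cysteine chemoproteomics in HEK293T RIPA lysate. Lysates were treated with compound 29 or 30 at 50 or 200 µM for 4 h, then IA-DTB (500 µM, 1 h), trypsin-digested, NeutrAvidin-enriched and analysed by diaPASEF. Competition ratio = intensity DMSO / intensity compound (n=4 treated, n=64 DMSO); binding: mean log2 CR ≥ 1 and p ≤ 0.05 plus QC filters. Target is the cysteine site.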

[2] = compound: ClCC(=O)N[C@H]1CCCc2ccccc12; test: as above; details: treatment time: 4 h, cell line lysate: HEK293T
Description: as §1

Target	log2 mean competition ratio ([1]; 50 µM)	log2 mean competition ratio ([1]; 200 µM)	log2 mean competition ratio ([2]; 50 µM)	log2 mean competition ratio ([2]; 200 µM)
MKLN1 C446 (UniProt Q9UL63)	-0.238	0.019	-0.525	-0.175
MMS22L C1120 (UniProt Q6ZRQ5)	-0.0672	-0.147	-0.576	-0.269
MGA C48 (UniProt Q8IWI9)	-0.258	0.00404	0.0614	-0.0737
MRC2 C521 (UniProt Q9UBG0)	0.261	0.152	-0.0917	-0.0106
METTL7B C96 (UniProt Q6UX53)	-0.0227	0.216	-0.312	0.158
MON2 C373 (UniProt Q7Z3U7)	0.158	-0.0166	-0.341	-0.0859
MIA2 C755 (UniProt Q96PC5)	-0.334	-0.00536	-0.543	-0.0188
MKI67 C1981(C2464) (UniProt P46013)	-0.159	-0.144	-0.148	-0.12
MMTAG2 C103 (UniProt Q9BU76)	-0.0911	-0.109	-0.221	0.0437
METTL16 C276 (UniProt Q86W50)	0.177	-0.291	0.186	-0.218
MGME1 C79 (UniProt Q9BQP7)	-0.308	-0.0393	-0.126	-0.0499
MKNK1 C231 (UniProt Q9BUB5)	-0.219	-0.073	-0.675	0.0618
MDN1 C2816 (UniProt Q9NU22)	0.418	0.476	-0.52	0.107
MRNIP C126 (UniProt Q6NTE8)	-0.0774	0.205	-0.00279	-0.00853
MGA C1001 (UniProt Q8IWI9)	0.558	0.296	-0.149	-0.0861
MEX3D C182 (UniProt Q86XN8)	-0.454	0.332	-0.115	-0.0903
MID1IP1 C5 (UniProt Q9NPA3)	-0.036	0.0516	-0.285	0.433
METTL13 C652 (UniProt Q8N6R0)	-0.468	-0.0326	-0.647	-0.161
MKI67 C824 (UniProt P46013)	-0.0157	-0.0997	-0.0837	-0.0952
METTL16 C432 (UniProt Q86W50)	-0.0623	0.265	-0.233	0.142
MEX3A C21 (UniProt A1L020)	-0.129	0.138	0.12	0.157
METTL6 C256 (UniProt Q8TCB7)	-0.118	0.147	0.0752	0.139

Single records, from the list above. Order of values: log2 mean competition ratio ([1]; 50 µM) | log2 mean competition ratio ([1]; 200 µM) | log2 mean competition ratio ([2]; 50 µM) | log2 mean competition ratio ([2]; 200 µM)
METTL6 C256 (UniProt Q8TCB7) is entered as -0.118 | 0.147 | 0.0752 | 0.139
METTL16 C432 (UniProt Q86W50) is entered as -0.0623 | 0.265 | -0.233 | 0.142
